Data from article PMC12118337 (Chembiochem, 2025).

Assay: general procedure: Fmoc solid-phase peptide synthesis; rink amide resin (Novabiochem); HBTU/HOBt/NMM
Details: whole synthesis, 230 nm

Row | Substance | final LC-MS purity
1 | FAM-QTE(pY)ATIKHP-NH2 | 98.0%
2 | FAM-rrrrrrrr-dPEG2-QTE(L-OMT)ATIKHP-NH2 | 100%
3 | PEPTIDE1{[ac].E.Q.T.E.[pY].A.T.I.V.F.P.[am]}$$$$V2.0 | 97.2%
4 | PEPTIDE1{[ac].Q.T.E.[L-OMT].A.T.I.K.H.P.[am]}$$$$V2.0 | 100%
5 | PEPTIDE1{[ac].Q.T.E.[Pmp].A.T.I.K.H.P.[am]}$$$$V2.0 | 98.2%

Some peptides are written in HELM: one residue between dots, names in brackets for other building blocks, links after the first $.
